Results published in article PMC10550925.
No constants are given. Whether binding was seen depends on the method and setting. In cells and extracts the contact can be indirect. Some entries that bind do so weakly or less than the wild type. Where a sequence is shown, tags or fusion partners need not be part of it.

Protein sequences, listed by entry. Tags and fused reporters are not part of them.
UniProt O75396: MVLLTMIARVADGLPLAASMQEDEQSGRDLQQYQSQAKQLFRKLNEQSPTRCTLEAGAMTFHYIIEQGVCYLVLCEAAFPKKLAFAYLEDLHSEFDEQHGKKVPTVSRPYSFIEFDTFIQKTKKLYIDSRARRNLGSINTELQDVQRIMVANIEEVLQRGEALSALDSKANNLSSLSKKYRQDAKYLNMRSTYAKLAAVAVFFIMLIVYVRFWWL

Key:
EGFP-ORP5 = molecular target: T1, EGFP-ORP5 (UniProt Q9H0X9); experiment: co-IP; GFP-trap agarose beads on lysates of HeLa cells co-transfected with FLAG-Sec22b and EGFP-ORP8, EGFP-ORP5 or EGFP; lysis buffer 50 mM Tris, 120 mM NaCl, 40 mM HEPES, 0.5% digitonin, 0.5% CHAPS, pH 7.36; 1 h at 4 °C; blots with anti-GFP and anti-FLAG
T1 sequence: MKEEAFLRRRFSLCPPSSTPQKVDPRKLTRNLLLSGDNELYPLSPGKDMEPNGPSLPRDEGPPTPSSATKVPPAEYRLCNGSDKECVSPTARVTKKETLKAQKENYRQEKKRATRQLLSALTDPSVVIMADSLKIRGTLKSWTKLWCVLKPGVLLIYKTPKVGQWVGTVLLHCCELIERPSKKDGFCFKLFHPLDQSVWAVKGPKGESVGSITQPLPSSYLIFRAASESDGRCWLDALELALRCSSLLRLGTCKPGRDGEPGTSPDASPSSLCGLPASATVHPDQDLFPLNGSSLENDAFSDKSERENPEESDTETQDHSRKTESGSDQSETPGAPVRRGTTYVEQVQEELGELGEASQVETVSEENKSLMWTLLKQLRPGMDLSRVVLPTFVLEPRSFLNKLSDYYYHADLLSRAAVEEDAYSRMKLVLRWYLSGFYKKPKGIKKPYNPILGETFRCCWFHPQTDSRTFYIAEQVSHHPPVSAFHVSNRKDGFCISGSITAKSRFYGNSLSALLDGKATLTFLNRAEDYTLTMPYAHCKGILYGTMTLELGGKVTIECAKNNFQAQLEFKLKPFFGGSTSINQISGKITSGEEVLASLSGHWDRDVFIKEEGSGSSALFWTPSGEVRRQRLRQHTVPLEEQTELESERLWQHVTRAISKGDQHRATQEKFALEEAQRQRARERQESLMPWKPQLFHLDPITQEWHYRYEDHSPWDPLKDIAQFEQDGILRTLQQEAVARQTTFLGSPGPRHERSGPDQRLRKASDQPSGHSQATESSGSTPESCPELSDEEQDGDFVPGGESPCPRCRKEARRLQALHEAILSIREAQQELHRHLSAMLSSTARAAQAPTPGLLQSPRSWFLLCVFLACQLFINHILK

EGFP-ORP8 = molecular target: T2, EGFP-ORP8 (UniProt Q9BZF1); experiment: as above
T2 sequence: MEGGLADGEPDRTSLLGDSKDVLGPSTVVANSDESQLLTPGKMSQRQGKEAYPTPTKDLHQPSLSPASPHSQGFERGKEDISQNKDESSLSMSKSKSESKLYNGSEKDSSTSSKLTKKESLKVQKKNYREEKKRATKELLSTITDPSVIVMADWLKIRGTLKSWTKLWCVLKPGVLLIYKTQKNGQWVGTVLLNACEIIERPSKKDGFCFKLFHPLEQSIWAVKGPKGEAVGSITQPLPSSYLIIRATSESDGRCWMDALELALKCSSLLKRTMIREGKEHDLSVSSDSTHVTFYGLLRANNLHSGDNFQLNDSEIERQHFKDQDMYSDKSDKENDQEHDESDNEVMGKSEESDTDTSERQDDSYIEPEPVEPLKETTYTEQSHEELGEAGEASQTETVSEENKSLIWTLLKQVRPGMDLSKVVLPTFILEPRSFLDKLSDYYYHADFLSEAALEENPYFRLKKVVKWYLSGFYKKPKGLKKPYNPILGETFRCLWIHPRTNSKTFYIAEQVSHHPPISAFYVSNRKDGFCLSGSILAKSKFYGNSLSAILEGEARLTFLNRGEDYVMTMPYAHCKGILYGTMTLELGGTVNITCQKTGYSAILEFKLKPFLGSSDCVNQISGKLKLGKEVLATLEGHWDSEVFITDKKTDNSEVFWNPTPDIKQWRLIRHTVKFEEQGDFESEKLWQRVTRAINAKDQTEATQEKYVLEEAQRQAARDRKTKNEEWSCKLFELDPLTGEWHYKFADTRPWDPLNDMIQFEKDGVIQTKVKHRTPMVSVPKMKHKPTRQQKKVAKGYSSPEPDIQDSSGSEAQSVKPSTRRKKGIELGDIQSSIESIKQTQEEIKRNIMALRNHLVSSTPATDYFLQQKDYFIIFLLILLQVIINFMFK

Q: For FLAG-Sec22b (from UniProt O75396 1-215), which binding (EGFP-ORP5) is on record?
A: binds

Q: And the binding (EGFP-ORP8)?
A: binds
